Results are given in words; binding and its absence hold for the method and conditions named. Binding seen in cells or lysates may run through a third protein. Some binding calls cover weakened binding; strength is not graded here. Tags and fused reporters may be left off the sequences shown.
Target: T1, soluble colony-stimulating factor 1 receptor (sCSF1R-HA-2A) (mouse) (UniProt P09581)
T1 sequence: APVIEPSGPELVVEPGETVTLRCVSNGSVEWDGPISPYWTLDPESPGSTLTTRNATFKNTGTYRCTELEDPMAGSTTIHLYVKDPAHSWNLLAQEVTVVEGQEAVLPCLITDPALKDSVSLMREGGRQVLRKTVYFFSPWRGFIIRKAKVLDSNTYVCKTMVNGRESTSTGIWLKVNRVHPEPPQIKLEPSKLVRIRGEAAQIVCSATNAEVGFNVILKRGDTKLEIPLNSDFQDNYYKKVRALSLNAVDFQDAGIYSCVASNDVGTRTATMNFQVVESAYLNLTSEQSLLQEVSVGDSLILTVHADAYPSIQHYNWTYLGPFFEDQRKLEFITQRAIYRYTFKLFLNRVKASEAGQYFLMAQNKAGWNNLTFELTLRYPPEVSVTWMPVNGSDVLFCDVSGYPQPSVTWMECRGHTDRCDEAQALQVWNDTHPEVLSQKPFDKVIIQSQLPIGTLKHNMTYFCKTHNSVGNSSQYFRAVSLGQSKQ
Assay: co-IP

binding: binds
B1: recombinant murine CSF1 (ligand, UniProt P07141 33-492)
chain: KEVSEHCSHMIGNGHLKVLQQLIDSQMETSCQIAFEFVDQEQLDDPVCYLKKAFFLVQDIIDETMRFKDNTPNANATERLQELSNNLNSCFTKDYEEQNKACVRTFHETPLQLLEKIKNFFNETKNLLEKDWNIFTKNCNNSFAKCSSRDVVTKPDCNCLYPKATPSSDPASASPHQPPAPSMAPLAGLAWDDSQRTEGSSLLPSELPLRIEDPGSAKQRPPRSTCQTLESTEQPNHGDRLTEDSQPHPSAGGPVPGVEDILESSLGTNWVLEEASGEASEGFLTQEAKFSPSTPVGGSIQAETDRPRALSASPFPKSTEDQKPVDITDRPLTEVNPMRPIGQTQNNTPEKTDGTSTLREDHQEPGSPHIATPNPQRVSNSATPVAQLLLPKSHSWGIVLPLGELEGKRSTRDRRSPAELEGGSASEGAARPVARFNSIPLTDTGHVEQHEGSSDPQIPE

— paper doi:10.1101/2020.09.09.288928
